Measurements taken from paper PMC5506194.
The exact form of at least one protein or probe is not confirmed. For some of these results: A negative result means that nothing was seen under these conditions.

Key:
[1] = test system: LysR2; assay: EMSA; settings: 50 mM Tris-HCl, 250 mM KCl, pH 8.5, room temperature 20 min, 200 ng Cy3-DNA and 200 ng salmon sperm DNA per 30 ul, 0-1000 ng protein (pairs up to 2000 ng total), recombinant protein, protein details: C-terminal His6 (pET21a), label: Cy3-dCTP, internal
[2] = test system: LysR1; assay: EMSA; settings: 50 mM Tris-HCl, 250 mM KCl, pH 8.5, room temperature 20 min, 200 ng Cy3-DNA and 200 ng salmon sperm DNA per 30 ul, 0-1000 ng protein (pairs up to 2000 ng total), recombinant protein, protein details: C-terminal His6 (pET21a), label: Cy3-dCTP, internal

Sequence	binding result ([1]; CbbM present (required))	binding result ([1]; LysR2 alone)	binding result [2]	binding result ([2]; CbbL present (enhanced))	binding result ([2]; LysR2 present (enhanced, heteromultimer suggested))	binding result [1]	binding result ([1]; CbbM present (enhanced))
CTGGGCGGTTATATGTAAGTTTTGCATTTGGTTTTCCTAATTGGTAAACTCATAAATGGTTGATATATAAAGTAAATGAGAGGAATCATATACATTTGTTTATGAATTGTATAACAAATACTCAATATATCACCAGATTATTTTAGATAAGATACGAATCACTGAAAGCGGAAGTGTTTTTAAAACGCAATTTAAGAATCGCTTTCTCTAACTCTTTTCATGATTAAACTAAAACGAAGAGGTAAACCATGGCTAAGACTTATAACGCCGGTGTA (double strand) [ncr lysR1/cbbL]	binds	no binding	binds	binds	binds	–	–
TGCAGCAACTTCTAAGTAACCGTAACCAGCAGCAGGTTCCATTGTGTAAGCAACAAGAATGTGATTCTGACCAGCAATCAGATCTTCTTCTTTTAGGCTTAAATCAGCATAACGATTCGACTGATCCATGTTTTATACCTCTATATATTGGGACAACAGCTCAGGAAAGTGTGTCCATAATTTTTGTTAAGTCATTGTAAAAACAACTTAACCCCGAAATTTGAATGGTCATTATAGAGGTTGTTCAGATAACTTCAAATCAATATTTTTGATTAAATTGATAGACTATTATCTATTCTAGTGAGGTGCGATTTAAATGATGCGTAATAATCTGCAAAGTTGGGTTAGCGAAATTGGTTAAACGCCTGT (double strand) [ncr cbbM/lysR2]	–	–	binds	–	–	binds	binds
AGCCGCTTCATAAAGTTCAACCTCATTGGATTGAGCATCATAAAATGGTTCGTTTTCAATCTTGTATTGTGTAATGTCCATATCAGTTCCCCGTAACGTTTATGGTAGGTATTTTCAAACAGAGTGTGAAAATACCGATGAATAAATTAAAGCGATATTAAAGTCATTTAGGTTTCTGGTTTACCGTAAGACAGGTAAAAGAGAAAACTAAATAACCTTGTGTTTGGCTAGGTTTTTGGTTTGGGTGTTAAAAAAACCCCTGCGCGAACGCAGAGGTTTCTTGGGTGTTTAAATAAACATTCGTTAAAGAATGGCTTATTTGTGTACGCCCAACTTCTCTCTCCAACCTGGGTAGATTGTGTCTGCATCTG (double strand) [ncr cbbQ-m/cbbM]	–	–	binds	–	–	binds	–
AACCACGTTCGTTTGATTGGTTATGATAACTATGCACAGTCTCAAGGTGCGAACATGCTTATTAAGCGTGGTGACATGTAATTTTAATTAAAATTACATGACCTTACCCCTCAGGCGTTGCCTGAGGGGCCAAATTTTGAGGGGAGATTAAACATCGGGTTTAATGCTTCTCTCGCCCTGGTTTACTTAGGCAGCTTATACCTCCTGCTTAAGTAACGGCCAGCTAGCCCCGAAACTAGCTGGTTTTCAATCCATTTAGATTTACTTATTTTAATCAAGTAATGAAATCTAAATATTTTGAATGCTACTTGCCAATGGAGAAAAAACATGTCGGAAATTAACGCATTAGATCCTAGTCAATACCTTATTAAAGACGAGCCA (double strand) [ncr cbbS/cbbQ-1]	binds	no binding	binds	–	–	–	–
